# Reference: article doi:10.1101/204172
# Amino acid sequences for entries named in this document (tags omitted). A change or cut given only in a name is not applied to a line headed by its entry.
# UniProt Q8CIR4: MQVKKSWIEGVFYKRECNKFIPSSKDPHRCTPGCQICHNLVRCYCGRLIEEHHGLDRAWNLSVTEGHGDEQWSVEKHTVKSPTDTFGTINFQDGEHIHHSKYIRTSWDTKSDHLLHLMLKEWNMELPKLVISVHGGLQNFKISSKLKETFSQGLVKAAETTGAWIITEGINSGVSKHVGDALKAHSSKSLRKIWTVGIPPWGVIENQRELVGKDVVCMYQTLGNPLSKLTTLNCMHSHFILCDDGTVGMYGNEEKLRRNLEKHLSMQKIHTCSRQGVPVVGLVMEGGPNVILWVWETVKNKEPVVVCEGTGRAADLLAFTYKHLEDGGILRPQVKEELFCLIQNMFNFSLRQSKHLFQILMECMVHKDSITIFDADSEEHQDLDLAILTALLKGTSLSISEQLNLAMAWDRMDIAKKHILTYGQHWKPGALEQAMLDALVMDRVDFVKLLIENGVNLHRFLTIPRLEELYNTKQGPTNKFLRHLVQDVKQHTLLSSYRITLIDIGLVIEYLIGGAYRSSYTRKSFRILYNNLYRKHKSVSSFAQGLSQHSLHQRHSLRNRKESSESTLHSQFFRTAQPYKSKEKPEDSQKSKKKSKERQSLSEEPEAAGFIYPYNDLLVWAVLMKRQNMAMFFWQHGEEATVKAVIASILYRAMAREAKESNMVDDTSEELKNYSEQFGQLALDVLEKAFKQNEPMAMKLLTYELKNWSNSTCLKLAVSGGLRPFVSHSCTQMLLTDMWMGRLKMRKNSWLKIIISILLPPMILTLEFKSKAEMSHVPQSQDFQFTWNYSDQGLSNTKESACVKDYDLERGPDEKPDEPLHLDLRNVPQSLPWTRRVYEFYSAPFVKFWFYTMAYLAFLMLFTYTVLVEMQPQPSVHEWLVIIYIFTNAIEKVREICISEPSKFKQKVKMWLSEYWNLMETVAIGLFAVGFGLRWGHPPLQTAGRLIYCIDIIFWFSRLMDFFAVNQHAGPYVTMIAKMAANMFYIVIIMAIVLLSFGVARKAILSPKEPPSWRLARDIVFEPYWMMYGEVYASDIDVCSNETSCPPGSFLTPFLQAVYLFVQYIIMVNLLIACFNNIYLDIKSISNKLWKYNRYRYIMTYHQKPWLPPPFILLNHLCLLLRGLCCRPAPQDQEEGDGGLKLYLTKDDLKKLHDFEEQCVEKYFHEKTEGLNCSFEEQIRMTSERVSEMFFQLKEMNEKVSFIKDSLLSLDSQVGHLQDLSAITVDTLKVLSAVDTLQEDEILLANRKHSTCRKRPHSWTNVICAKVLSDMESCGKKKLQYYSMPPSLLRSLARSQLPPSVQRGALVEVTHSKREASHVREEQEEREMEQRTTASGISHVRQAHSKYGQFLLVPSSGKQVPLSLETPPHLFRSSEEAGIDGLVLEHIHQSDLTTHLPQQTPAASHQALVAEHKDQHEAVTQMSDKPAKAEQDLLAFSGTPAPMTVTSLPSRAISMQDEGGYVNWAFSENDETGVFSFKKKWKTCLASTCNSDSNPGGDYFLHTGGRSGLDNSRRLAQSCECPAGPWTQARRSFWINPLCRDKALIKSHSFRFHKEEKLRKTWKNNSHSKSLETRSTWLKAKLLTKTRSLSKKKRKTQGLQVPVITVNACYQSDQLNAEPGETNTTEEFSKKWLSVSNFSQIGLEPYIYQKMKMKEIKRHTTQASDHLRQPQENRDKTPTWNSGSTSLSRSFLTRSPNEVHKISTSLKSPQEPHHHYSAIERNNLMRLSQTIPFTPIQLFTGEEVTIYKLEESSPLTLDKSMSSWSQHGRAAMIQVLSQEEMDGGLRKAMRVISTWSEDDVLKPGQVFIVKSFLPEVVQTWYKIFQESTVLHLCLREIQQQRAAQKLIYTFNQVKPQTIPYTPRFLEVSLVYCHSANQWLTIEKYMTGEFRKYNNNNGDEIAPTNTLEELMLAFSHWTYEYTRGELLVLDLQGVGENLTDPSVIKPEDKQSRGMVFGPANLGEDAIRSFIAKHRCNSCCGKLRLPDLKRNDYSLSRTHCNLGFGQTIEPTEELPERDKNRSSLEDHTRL
# UniProt Q923J1: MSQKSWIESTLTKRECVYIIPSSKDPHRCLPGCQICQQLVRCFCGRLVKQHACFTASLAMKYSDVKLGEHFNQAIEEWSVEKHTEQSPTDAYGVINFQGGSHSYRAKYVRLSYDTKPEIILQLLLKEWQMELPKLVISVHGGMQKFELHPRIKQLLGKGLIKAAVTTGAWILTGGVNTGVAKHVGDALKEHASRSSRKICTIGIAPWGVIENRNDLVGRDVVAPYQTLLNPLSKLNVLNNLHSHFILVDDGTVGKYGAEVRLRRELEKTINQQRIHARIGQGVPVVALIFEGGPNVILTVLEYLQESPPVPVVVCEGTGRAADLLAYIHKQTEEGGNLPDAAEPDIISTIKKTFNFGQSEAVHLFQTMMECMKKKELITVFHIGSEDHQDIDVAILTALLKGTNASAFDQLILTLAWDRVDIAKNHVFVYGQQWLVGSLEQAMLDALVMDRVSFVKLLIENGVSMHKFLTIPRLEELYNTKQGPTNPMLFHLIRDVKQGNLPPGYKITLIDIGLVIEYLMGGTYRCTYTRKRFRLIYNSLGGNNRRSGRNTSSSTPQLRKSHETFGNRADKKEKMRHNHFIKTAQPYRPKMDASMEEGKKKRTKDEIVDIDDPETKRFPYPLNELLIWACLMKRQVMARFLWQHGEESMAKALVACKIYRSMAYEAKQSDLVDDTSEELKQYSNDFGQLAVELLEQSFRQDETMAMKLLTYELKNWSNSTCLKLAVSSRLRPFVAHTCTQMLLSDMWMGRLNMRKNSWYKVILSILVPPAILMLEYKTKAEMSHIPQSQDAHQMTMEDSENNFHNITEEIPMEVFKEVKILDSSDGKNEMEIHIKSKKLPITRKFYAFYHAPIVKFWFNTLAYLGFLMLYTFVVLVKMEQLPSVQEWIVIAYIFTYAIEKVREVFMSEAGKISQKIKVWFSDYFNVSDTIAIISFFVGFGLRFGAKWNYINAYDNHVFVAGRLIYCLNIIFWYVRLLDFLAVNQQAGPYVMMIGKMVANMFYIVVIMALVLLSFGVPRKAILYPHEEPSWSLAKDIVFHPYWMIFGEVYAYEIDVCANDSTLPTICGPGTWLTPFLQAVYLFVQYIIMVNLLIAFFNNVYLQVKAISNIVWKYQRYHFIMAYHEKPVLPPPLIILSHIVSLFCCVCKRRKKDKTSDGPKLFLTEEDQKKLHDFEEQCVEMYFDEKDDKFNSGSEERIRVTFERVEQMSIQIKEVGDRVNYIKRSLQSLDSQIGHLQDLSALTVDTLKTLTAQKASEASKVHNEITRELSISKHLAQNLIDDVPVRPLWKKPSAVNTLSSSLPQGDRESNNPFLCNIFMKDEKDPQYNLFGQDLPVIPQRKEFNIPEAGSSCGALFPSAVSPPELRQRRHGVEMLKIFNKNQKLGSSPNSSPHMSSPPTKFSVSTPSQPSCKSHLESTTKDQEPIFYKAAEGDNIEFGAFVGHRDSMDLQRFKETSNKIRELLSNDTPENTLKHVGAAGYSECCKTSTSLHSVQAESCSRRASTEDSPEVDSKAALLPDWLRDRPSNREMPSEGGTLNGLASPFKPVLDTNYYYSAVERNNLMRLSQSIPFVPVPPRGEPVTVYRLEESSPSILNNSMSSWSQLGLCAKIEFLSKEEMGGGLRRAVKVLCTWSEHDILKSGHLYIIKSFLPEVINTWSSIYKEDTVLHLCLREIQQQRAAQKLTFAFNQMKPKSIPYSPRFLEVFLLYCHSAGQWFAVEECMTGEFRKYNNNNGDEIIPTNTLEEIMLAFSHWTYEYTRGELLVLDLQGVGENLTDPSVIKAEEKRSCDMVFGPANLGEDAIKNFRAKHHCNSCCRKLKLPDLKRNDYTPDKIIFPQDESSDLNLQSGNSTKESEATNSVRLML
# UniProt P15116: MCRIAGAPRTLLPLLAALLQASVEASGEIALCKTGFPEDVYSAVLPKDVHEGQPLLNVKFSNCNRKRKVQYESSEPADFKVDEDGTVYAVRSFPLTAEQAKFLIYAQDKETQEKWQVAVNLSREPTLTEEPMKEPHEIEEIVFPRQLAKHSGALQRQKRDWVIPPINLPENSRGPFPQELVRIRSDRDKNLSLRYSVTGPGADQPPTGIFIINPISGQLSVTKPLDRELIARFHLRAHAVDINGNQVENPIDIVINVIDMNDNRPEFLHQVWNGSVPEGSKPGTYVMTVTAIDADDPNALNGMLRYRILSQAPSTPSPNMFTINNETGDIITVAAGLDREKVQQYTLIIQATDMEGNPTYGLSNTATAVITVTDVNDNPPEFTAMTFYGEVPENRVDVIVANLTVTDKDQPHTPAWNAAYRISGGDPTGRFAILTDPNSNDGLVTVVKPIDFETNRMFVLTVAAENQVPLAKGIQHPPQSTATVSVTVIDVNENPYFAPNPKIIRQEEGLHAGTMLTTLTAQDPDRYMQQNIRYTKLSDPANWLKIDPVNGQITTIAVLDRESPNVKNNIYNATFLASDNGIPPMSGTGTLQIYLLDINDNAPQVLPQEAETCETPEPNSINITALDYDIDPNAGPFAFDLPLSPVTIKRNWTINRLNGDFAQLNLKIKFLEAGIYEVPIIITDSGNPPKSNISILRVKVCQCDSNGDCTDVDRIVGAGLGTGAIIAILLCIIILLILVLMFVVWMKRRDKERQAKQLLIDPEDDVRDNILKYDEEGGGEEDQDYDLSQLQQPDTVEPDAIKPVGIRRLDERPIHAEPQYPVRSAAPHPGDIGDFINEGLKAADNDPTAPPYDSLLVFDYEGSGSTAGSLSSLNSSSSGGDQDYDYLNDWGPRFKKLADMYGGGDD
# Results are given in words; binding and its absence hold for the method and conditions named. For part of these data: Binding seen in cells or lysates may run through a third protein.
# Legend:
# [1] = molecular target: HA-tagged TRPM6 (canonical splice form, full length) (mouse) (UniProt Q8CIR4); assay: co-IP
# [2] = molecular target: HA-tagged TRPM7 (canonical splice form, full length) (mouse) (UniProt Q923J1); assay: co-IP
# USH1C (harmonin) = molecular target: T1, USH1C (harmonin) (UniProt Q9ES64); assay: two-hybrid
# T1 sequence: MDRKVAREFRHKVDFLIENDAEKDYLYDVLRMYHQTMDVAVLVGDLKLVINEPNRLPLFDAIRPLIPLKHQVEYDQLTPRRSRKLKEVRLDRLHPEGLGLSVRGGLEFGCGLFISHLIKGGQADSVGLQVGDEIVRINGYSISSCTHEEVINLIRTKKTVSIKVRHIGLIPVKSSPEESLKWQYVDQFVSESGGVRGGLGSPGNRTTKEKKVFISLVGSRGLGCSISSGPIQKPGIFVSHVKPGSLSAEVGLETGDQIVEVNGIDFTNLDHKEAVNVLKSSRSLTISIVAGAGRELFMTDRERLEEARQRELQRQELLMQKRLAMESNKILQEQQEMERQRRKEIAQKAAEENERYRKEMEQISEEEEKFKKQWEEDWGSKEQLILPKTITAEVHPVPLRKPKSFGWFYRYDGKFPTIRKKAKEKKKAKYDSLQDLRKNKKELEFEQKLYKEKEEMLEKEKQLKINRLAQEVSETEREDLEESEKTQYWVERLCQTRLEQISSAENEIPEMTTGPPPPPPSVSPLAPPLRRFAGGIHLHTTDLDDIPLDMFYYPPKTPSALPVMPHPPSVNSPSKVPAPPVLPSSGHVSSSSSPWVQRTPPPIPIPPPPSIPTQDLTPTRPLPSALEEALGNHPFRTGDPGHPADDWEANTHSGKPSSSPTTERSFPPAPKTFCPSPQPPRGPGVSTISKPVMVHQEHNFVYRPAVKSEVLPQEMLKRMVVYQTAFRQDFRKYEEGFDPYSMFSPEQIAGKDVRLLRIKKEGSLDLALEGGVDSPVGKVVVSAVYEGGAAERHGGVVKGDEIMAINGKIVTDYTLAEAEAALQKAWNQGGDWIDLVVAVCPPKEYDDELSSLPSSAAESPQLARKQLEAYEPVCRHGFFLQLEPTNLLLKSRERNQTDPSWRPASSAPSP
Substance,binding [1],binding [2],binding (USH1C (harmonin))
CDH2 (N-cadherin) (from UniProt P15116),no binding,no binding,–
"TRPV6, the 33 terminal amino acids with the C-terminal seven amino acids deleted (domain or fragment)",–,–,no binding
